These results are taken from publication PMC3024409.

Holding throughout (assay): condition: 5 µM untagged protein, 3 µM MBP-tagged protein; pull-down; 3 µM MBP-tagged bait and 5 µM untagged prey in 50 mM HEPES pH 7.5, 150 mM KCl; 10 min at room temperature, 1 h at 4°C with amylose resin; washed, eluted with 20 mM maltose; SDS-PAGE, Coomassie; both purified
Experiment [1] deals with T1, (MBP-)Nob1 (S. cerevisiae), Q08444.
T1 chain: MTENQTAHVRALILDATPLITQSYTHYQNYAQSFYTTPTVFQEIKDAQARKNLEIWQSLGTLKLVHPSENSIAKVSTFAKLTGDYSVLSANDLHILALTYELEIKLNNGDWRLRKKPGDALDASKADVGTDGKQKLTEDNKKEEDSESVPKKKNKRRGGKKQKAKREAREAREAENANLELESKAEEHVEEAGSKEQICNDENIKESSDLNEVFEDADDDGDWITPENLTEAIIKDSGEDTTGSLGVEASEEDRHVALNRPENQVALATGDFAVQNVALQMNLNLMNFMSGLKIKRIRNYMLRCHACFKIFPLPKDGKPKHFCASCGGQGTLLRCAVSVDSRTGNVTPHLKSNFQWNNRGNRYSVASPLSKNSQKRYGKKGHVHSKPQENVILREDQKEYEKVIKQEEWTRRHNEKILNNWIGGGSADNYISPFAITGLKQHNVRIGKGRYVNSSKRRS
To be noted: remark: other sources report otherwise.

The target in experiment [2] is T2, (MBP-)Rps3 (S. cerevisiae), P05750.
T2 chain: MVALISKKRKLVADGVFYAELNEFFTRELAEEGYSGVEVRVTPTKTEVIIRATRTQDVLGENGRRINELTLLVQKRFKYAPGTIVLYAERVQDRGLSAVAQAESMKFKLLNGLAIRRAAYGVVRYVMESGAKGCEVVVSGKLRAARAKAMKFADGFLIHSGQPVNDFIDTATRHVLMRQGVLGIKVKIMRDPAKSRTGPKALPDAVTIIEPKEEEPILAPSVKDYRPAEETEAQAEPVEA
To be noted: remark: other sources report otherwise.

Experiment [3] addresses (MBP-)Dim1 (S. cerevisiae), P41819. The note with it: remark: other sources report otherwise.
Experiment [4] has as its target T3, (MBP-)Rps5 (S. cerevisiae) (UniProt P26783).
T3 sequence: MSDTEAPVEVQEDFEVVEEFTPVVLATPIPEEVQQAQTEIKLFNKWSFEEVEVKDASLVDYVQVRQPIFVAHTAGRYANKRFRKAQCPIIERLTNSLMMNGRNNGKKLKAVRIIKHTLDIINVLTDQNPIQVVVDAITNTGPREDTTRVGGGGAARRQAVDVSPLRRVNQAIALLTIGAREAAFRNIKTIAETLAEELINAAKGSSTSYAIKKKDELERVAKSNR

For experiment [5], the target named is T4, (MBP-)Rps15 (S. cerevisiae) (UniProt Q01855).
T4 sequence: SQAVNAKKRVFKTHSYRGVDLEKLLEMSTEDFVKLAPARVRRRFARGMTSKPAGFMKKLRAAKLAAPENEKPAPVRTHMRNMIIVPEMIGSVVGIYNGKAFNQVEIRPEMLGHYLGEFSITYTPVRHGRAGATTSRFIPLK

Experiment [6] concerns the target T5, (MBP-)Dim2/Pno1 (S. cerevisiae), Q99216.
T5 chain: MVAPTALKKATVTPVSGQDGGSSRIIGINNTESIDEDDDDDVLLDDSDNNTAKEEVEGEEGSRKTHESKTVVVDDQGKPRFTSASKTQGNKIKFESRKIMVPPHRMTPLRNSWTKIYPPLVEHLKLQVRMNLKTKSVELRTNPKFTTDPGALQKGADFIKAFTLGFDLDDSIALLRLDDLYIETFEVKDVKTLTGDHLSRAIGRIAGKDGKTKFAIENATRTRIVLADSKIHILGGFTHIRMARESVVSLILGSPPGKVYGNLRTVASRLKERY
The note with it: remark: other sources report otherwise.

Experiment [7] concerns the target T6, (MBP-)Tsr1 (S. cerevisiae), Q07381.
T6 chain: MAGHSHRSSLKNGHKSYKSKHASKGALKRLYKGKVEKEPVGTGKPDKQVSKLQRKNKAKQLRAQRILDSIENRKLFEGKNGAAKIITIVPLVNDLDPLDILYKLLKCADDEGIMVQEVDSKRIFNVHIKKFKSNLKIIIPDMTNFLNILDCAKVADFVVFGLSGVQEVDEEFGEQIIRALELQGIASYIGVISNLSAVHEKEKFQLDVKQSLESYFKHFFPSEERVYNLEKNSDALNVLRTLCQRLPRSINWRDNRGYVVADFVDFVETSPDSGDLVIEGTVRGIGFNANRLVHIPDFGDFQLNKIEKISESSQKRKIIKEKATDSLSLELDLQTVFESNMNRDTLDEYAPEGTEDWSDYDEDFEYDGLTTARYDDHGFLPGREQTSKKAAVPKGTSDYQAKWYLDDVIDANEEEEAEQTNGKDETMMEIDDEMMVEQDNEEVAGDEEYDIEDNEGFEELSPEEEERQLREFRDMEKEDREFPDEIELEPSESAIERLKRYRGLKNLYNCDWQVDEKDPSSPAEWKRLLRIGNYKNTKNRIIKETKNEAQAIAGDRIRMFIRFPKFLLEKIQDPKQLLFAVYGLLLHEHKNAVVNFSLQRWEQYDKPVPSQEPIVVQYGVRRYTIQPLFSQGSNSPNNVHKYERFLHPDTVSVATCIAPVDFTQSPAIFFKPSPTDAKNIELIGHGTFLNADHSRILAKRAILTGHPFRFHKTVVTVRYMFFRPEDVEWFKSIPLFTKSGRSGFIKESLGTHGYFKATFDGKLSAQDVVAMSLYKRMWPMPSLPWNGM
To be noted: remark: other sources report otherwise.

These are yes or no findings as the source states them, for the method shown. Tags and fused reporters may be left off the sequences shown.

B1: Tsr1 (untagged), Q07381 1-788 (protein)
chain: MAGHSHRSSLKNGHKSYKSKHASKGALKRLYKGKVEKEPVGTGKPDKQVSKLQRKNKAKQLRAQRILDSIENRKLFEGKNGAAKIITIVPLVNDLDPLDILYKLLKCADDEGIMVQEVDSKRIFNVHIKKFKSNLKIIIPDMTNFLNILDCAKVADFVVFGLSGVQEVDEEFGEQIIRALELQGIASYIGVISNLSAVHEKEKFQLDVKQSLESYFKHFFPSEERVYNLEKNSDALNVLRTLCQRLPRSINWRDNRGYVVADFVDFVETSPDSGDLVIEGTVRGIGFNANRLVHIPDFGDFQLNKIEKISESSQKRKIIKEKATDSLSLELDLQTVFESNMNRDTLDEYAPEGTEDWSDYDEDFEYDGLTTARYDDHGFLPGREQTSKKAAVPKGTSDYQAKWYLDDVIDANEEEEAEQTNGKDETMMEIDDEMMVEQDNEEVAGDEEYDIEDNEGFEELSPEEEERQLREFRDMEKEDREFPDEIELEPSESAIERLKRYRGLKNLYNCDWQVDEKDPSSPAEWKRLLRIGNYKNTKNRIIKETKNEAQAIAGDRIRMFIRFPKFLLEKIQDPKQLLFAVYGLLLHEHKNAVVNFSLQRWEQYDKPVPSQEPIVVQYGVRRYTIQPLFSQGSNSPNNVHKYERFLHPDTVSVATCIAPVDFTQSPAIFFKPSPTDAKNIELIGHGTFLNADHSRILAKRAILTGHPFRFHKTVVTVRYMFFRPEDVEWFKSIPLFTKSGRSGFIKESLGTHGYFKATFDGKLSAQDVVAMSLYKRMWPMPSLPWNGM
B1: the binding entry in experiment [1], in experiment [2] and in experiment [3] was “no binding” each time.

B2: Tsr1 (untagged) (protein, UniProt Q07381 1-788)
chain: MAGHSHRSSLKNGHKSYKSKHASKGALKRLYKGKVEKEPVGTGKPDKQVSKLQRKNKAKQLRAQRILDSIENRKLFEGKNGAAKIITIVPLVNDLDPLDILYKLLKCADDEGIMVQEVDSKRIFNVHIKKFKSNLKIIIPDMTNFLNILDCAKVADFVVFGLSGVQEVDEEFGEQIIRALELQGIASYIGVISNLSAVHEKEKFQLDVKQSLESYFKHFFPSEERVYNLEKNSDALNVLRTLCQRLPRSINWRDNRGYVVADFVDFVETSPDSGDLVIEGTVRGIGFNANRLVHIPDFGDFQLNKIEKISESSQKRKIIKEKATDSLSLELDLQTVFESNMNRDTLDEYAPEGTEDWSDYDEDFEYDGLTTARYDDHGFLPGREQTSKKAAVPKGTSDYQAKWYLDDVIDANEEEEAEQTNGKDETMMEIDDEMMVEQDNEEVAGDEEYDIEDNEGFEELSPEEEERQLREFRDMEKEDREFPDEIELEPSESAIERLKRYRGLKNLYNCDWQVDEKDPSSPAEWKRLLRIGNYKNTKNRIIKETKNEAQAIAGDRIRMFIRFPKFLLEKIQDPKQLLFAVYGLLLHEHKNAVVNFSLQRWEQYDKPVPSQEPIVVQYGVRRYTIQPLFSQGSNSPNNVHKYERFLHPDTVSVATCIAPVDFTQSPAIFFKPSPTDAKNIELIGHGTFLNADHSRILAKRAILTGHPFRFHKTVVTVRYMFFRPEDVEWFKSIPLFTKSGRSGFIKESLGTHGYFKATFDGKLSAQDVVAMSLYKRMWPMPSLPWNGM
With B2, the binding entry in experiment [4] and in experiment [5] was “no binding” in each case.

B3: Dim1 (untagged), P41819 1-318 (enzyme)
chain: MGKAAKKKYSGATSSKQVSAEKHLSSVFKFNTDLGQHILKNPLVAQGIVDKAQIRPSDVVLEVGPGTGNLTVRILEQAKNVVAVEMDPRMAAELTKRVRGTPVEKKLEIMLGDFMKTELPYFDICISNTPYQISSPLVFKLINQPRPPRVSILMFQREFALRLLARPGDSLYCRLSANVQMWANVTHIMKVGKNNFRPPPQVESSVVRLEIKNPRPQVDYNEWDGLLRIVFVRKNRTISAGFKSTTVMDILEKNYKTFLAMNNEMVDDTKGSMHDVVKEKIDTVLKETDLGDKRAGKCDQNDFLRLLYAFHQVGIHFS
Take B3: the binding result in experiment [6] and in experiment [7] was “no binding” each time.
